From the supplement of paper PMC10849652
Some of the results follow.

Chains of the proteins cited; added tags and fusions are not shown. Lines headed by an entry give the natural chain unless they say otherwise; changes in a name come on top.
UniProt P26641, whole entry, looked up: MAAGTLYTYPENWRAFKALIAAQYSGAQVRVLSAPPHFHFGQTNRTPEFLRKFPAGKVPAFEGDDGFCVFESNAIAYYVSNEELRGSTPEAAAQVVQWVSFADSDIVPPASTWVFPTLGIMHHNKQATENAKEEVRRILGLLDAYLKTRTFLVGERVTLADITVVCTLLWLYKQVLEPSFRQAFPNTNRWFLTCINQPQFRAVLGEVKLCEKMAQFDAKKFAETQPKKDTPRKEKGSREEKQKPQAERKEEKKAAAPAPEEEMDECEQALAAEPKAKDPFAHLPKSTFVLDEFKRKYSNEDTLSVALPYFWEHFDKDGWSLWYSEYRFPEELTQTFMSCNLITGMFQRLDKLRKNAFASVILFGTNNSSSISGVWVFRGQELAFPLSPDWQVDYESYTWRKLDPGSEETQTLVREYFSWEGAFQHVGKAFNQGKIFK
UniProt P78344: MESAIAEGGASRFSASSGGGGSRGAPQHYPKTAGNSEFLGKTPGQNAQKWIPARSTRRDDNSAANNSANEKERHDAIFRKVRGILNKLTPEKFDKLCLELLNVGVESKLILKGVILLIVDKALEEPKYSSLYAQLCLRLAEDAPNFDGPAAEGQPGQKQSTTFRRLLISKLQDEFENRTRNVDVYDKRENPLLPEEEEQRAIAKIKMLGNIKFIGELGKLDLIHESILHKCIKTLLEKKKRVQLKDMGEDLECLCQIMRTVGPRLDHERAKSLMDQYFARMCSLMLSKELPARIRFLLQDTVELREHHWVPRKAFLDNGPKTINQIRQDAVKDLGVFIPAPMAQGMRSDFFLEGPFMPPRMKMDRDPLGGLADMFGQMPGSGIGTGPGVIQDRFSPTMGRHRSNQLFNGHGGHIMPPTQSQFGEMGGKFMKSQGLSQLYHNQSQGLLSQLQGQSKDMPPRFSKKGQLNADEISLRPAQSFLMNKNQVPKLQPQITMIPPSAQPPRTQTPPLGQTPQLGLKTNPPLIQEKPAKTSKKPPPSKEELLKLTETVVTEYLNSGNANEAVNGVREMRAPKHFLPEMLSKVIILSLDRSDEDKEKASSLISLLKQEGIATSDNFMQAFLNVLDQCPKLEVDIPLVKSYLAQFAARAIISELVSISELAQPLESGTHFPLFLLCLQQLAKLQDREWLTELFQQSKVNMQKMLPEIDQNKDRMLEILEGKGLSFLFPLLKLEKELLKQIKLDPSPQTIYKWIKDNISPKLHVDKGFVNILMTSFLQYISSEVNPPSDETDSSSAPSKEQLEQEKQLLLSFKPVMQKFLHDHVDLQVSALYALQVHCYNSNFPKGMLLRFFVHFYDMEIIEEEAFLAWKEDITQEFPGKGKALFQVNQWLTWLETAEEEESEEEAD
UniProt O43324: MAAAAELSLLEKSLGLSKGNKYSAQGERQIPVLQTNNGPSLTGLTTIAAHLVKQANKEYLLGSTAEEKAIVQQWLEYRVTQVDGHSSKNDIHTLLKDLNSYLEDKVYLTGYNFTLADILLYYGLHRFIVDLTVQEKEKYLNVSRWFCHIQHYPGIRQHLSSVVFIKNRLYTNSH
UniProt P20042, whole entry, looked up: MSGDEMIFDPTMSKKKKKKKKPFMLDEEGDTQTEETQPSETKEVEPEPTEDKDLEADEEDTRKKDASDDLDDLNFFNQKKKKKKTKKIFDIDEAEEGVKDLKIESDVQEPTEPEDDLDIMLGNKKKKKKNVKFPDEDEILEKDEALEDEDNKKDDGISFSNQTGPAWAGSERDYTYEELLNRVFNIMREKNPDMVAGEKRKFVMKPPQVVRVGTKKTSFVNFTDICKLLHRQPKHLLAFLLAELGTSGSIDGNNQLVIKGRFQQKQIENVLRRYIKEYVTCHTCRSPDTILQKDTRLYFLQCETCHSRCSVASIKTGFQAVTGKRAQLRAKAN
UniProt Q8TE02: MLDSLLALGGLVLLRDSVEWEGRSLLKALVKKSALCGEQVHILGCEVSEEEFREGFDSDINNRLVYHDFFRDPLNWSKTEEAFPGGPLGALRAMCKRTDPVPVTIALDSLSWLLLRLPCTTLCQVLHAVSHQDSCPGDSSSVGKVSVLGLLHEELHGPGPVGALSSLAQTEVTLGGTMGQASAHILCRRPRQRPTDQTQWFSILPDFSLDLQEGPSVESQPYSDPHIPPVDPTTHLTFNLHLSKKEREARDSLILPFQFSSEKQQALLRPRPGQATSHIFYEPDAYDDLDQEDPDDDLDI
UniProt O95834: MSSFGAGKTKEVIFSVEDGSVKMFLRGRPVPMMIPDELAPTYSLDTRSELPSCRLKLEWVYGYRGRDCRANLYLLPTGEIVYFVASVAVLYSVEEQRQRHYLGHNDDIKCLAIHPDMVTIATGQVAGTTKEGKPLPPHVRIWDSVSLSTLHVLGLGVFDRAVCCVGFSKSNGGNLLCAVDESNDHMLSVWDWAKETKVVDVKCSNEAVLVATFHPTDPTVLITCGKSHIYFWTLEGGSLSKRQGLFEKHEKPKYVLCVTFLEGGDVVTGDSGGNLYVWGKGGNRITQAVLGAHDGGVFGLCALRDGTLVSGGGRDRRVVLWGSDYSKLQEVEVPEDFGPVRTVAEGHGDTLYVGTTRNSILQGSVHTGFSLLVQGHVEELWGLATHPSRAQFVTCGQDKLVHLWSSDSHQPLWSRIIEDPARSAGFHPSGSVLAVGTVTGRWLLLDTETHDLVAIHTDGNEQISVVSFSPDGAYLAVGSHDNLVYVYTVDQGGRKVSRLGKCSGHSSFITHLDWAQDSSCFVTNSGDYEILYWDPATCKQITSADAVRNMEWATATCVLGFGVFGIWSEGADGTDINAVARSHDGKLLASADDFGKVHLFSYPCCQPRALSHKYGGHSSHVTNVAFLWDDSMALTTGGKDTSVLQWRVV
UniProt Q9UHY7: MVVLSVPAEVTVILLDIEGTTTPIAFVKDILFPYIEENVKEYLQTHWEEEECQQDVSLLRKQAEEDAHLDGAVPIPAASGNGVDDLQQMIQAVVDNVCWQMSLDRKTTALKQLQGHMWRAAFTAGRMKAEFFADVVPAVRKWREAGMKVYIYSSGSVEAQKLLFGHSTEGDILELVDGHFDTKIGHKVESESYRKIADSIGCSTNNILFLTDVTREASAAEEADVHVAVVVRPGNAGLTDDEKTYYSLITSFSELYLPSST
UniProt Q96C19: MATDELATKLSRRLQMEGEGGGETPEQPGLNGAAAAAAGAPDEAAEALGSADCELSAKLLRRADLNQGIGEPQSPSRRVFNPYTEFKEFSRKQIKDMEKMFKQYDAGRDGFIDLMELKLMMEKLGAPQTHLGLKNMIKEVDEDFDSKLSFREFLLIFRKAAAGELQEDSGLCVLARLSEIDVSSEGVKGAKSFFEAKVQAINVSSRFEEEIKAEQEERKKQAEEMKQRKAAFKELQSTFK
UniProt Q9NR50: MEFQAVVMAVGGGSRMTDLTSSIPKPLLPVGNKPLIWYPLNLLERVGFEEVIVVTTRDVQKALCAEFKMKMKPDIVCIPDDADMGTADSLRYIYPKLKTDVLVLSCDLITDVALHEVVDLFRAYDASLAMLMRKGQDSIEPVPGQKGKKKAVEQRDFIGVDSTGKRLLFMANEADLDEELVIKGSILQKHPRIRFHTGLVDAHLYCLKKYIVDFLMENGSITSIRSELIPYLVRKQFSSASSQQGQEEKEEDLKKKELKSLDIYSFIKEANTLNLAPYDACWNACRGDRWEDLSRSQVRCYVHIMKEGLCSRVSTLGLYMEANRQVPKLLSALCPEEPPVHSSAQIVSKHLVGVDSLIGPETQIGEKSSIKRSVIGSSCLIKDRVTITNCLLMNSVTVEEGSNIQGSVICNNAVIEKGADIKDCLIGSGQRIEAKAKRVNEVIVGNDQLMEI
UniProt A1L3X0: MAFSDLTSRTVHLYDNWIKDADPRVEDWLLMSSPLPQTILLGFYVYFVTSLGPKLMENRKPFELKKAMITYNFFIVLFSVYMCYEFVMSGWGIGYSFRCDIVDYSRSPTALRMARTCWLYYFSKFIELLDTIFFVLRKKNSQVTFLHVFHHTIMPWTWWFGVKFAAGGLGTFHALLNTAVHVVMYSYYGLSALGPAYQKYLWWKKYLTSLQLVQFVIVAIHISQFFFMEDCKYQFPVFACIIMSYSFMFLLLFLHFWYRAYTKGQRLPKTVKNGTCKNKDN
UniProt Q05639, whole entry, looked up: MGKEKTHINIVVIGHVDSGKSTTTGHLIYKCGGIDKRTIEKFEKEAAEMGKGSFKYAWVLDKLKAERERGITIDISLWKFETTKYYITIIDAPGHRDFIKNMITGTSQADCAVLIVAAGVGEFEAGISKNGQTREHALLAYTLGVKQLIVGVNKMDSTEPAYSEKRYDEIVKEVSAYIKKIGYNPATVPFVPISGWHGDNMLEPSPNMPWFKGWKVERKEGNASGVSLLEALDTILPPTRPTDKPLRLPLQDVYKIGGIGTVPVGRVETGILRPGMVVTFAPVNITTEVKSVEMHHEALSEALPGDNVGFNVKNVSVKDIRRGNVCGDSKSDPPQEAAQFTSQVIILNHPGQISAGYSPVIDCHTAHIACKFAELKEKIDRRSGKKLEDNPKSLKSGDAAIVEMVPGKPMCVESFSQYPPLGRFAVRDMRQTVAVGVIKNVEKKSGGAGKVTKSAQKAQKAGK
UniProt P24534: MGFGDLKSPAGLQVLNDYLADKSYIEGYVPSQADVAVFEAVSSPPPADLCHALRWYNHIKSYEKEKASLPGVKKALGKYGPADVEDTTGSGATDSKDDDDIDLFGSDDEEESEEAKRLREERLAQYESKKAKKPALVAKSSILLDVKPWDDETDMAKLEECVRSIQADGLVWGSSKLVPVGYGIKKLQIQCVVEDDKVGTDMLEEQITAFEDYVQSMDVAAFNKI
UniProt Q96EB1: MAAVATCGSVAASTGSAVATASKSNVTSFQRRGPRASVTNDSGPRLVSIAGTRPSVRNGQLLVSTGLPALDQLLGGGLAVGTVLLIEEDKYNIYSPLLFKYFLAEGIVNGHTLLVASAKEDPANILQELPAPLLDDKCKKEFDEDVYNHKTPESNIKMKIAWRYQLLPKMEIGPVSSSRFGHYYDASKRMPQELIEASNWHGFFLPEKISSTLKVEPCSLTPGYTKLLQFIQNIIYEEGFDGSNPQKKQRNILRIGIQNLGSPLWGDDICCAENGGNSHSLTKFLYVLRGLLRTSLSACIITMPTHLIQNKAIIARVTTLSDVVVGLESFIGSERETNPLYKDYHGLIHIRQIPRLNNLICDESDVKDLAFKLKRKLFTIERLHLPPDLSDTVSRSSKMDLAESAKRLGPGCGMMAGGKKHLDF
UniProt O43768: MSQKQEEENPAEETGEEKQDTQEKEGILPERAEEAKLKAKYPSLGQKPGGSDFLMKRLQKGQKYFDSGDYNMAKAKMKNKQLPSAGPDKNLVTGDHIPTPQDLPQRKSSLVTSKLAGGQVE
UniProt Q13347, whole entry, looked up: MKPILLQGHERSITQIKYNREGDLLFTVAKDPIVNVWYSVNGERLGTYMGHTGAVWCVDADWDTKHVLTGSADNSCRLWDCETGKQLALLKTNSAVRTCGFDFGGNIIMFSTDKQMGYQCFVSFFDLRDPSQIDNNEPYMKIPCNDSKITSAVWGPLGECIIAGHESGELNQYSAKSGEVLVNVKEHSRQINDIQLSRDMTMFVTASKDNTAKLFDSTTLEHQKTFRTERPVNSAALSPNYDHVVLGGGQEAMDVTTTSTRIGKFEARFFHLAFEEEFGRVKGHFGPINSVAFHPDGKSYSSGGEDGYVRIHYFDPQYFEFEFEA
UniProt O75822, whole entry, looked up: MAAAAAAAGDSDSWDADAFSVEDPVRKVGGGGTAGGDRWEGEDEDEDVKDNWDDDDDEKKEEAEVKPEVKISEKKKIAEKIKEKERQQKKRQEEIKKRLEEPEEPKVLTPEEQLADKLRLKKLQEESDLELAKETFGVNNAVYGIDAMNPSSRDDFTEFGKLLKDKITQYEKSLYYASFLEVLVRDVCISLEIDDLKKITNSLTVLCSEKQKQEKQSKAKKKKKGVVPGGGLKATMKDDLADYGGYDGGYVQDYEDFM
UniProt Q9UI10, whole entry, looked up: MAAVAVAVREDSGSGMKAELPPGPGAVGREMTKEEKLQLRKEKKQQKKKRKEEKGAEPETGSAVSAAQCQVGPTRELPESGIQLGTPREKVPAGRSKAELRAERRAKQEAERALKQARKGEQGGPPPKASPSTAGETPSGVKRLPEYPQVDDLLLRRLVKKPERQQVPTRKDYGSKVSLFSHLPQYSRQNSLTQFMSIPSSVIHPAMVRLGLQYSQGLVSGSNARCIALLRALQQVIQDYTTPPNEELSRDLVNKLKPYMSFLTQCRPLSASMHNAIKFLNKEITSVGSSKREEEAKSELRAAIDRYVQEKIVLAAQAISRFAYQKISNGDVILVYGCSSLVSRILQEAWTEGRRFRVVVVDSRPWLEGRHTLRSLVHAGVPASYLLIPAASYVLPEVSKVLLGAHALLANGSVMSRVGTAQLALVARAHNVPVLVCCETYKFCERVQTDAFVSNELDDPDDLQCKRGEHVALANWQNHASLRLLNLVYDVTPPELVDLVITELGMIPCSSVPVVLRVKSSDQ
UniProt P54852: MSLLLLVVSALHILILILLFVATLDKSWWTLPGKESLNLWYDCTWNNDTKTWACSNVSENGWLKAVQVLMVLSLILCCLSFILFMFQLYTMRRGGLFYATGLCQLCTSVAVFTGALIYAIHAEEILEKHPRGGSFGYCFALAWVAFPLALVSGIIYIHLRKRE

Experiments:
Assay in all cases: log2 fold change, soluble protein after heating vs DMSO (PISA); higher = thermal stabilisation; K562 cells, 10 uM, 30 min; active = over 0.2 and 3.5 SD of the protein, either way, in both replicates (recomputed)
erlotinib = compound: C#Cc1cccc(Nc2ncnc3cc(OCCOC)c(OCCOC)cc23)c1 [erlotinib]
How it was run: (§1)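 For each measurement, 10 μM compound was applied for 30 min to K562 cells at 2×10^6 cells/mL. Aliquots were heated for 3 min across 48°C-58°C, pooled, and extracted in PBS with 0.5% NP-40 at 4°C; the supernatant after 21,000xg for 90 min was soluble protein. This was quantified by TMTpro 16plex LC-MS/MS with channel sums equalised, and thermal stability was reported relative to control samples from duplicates, on a log2 fold-change scale.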

[1] = compound: C/C(=N\NC(=O)C1=CC(=CC=C1)S(=O)(=O)N2CCOCC2)/C3=C(C=CC(=C3)Cl)O
How it was run: as §1

[2] = compound: C1=CC(=C(C=C1Cl)C2=NC3=NC=CN=C3C(=N2)NC4=CC=NC=C4)F
How it was run: as §1

[3] = compound: C1=CC(=CC=C1C2=NC3=C(N2)C=C(C=C3)C(=O)N)OC4=CC=C(C=C4)Cl
How it was run: as §1

[4] = compound: C1=CC2=C(C=CC(=C2)/C=C\3/C(=O)NC(=NCC4=CC=CS4)S3)N=C1
How it was run: as §1

[5] = compound: C1=CC2=NC=CN=C2C=C1/C=C/3\C(=O)NC(=O)S3
How it was run: as §1

[6] = compound: C1=CC=C(C=C1)C2=NC(=C(N2)C3=CC=NC=C3)C4=CC(=C(C=C4)Cl)O
How it was run: as §1

[7] = compound: C1=CC=C2C(=C1)C3=NNC4=CC=CC(=C43)C2=O
How it was run: as §1

[8] = compound: C1CCN(C1)C(=O)NC2=CC=CC(=C2)NC3=NC=C(C(=N3)NCCC4=CN=CN4)Br
How it was run: as §1

[9] = compound: C1CN(CCC1(CC2=CC=C(C=C2)Cl)N)C3=NC=NC4=C3C=CN4
How it was run: as §1

Measured: log2 fold change

EEF1G isoform 2 (UniProt P26641)
inactive: erlotinib -0.051 | [1] 0.062 | [2] -0.009 | [3] -0.016 | [4] -0.036 | [5] -0.021 | [6] 0.083 | [7] 0.012 | [8] 0.001 | [9] -0.031

EIF4G2 (UniProt P78344)
inactive: erlotinib 0.052 | [1] 0.024 | [2] -0.373 | [3] -0.036 | [4] 0.058 | [5] -0.016 | [6] -0.037 | [7] 0.025 | [8] -0.09 | [9] -0.17

EEF1E1 (UniProt O43324)
inactive: erlotinib 0.032 | [1] -0.012 | [2] -0.067 | [3] -0.05 | [4] 0.012 | [5] 0.02 | [6] 0.005 | [7] 0 | [8] 0.015 | [9] -0.047

EIF2S2 (UniProt P20042)
inactive: erlotinib -0.022 | [1] -0.071 | [2] -0.148 | [3] -0.013 | [4] -0.087 | [5] 0.013 | [6] -0.028 | [7] -0.021 | [8] 0.011 | [9] -0.054

EMC2 (UniProt Q15006)
inactive: erlotinib -0.045 | [1] 0.06 | [2] 0.046 | [3] -0.01 | [4] 0.034 | [5] 0.019 | [6] 0.085 | [7] 0.026 | [8] -0.03 | [9] 0.035

ELP3 (UniProt Q9H9T3)
inactive: erlotinib -0.004 | [1] -0.044 | [2] 0.028 | [3] 0.008 | [4] 0.021 | [5] -0.001 | [6] 0.034 | [7] 0.003 | [8] -0.014 | [9] 0.01

ELP5 isoform 4 (UniProt Q8TE02)
inactive: erlotinib -0.047 | [1] 0.03 | [2] -0.01 | [3] 0.017 | [4] 0.053 | [5] -0.008 | [6] -0.039 | [7] -0.03 | [8] -0.02 | [9] 0

ENO1 isoform 2 (UniProt P06733)
inactive: erlotinib 0.18 | [1] -0.341 | [2] 0.142 | [3] -0.024 | [4] 0.089 | [5] -0.029 | [6] 0.091 | [7] -0.069 | [8] -0.037 | [9] 0.107

EML2 isoform 3 (UniProt O95834)
inactive: erlotinib -0.087 | [1] 0.065 | [2] 0.062 | [3] 0.036 | [4] 0.02 | [5] 0.012 | [6] 0.05 | [7] 0.027 | [8] 0.031 | [9] -0.014

2 consecutive records already listed, quoted:
ELP3 (UniProt Q9H9T3)
inactive: erlotinib -0.004 | [1] -0.044 | [2] 0.028 | [3] 0.008 | [4] 0.021 | [5] -0.001 | [6] 0.034 | [7] 0.003 | [8] -0.014 | [9] 0.01

ELP5 isoform 4 (UniProt Q8TE02)
inactive: erlotinib -0.047 | [1] 0.03 | [2] -0.01 | [3] 0.017 | [4] 0.053 | [5] -0.008 | [6] -0.039 | [7] -0.03 | [8] -0.02 | [9] 0

Additional records.

ENOPH1 (UniProt Q9UHY7)
inactive: erlotinib 0.048 | [1] 0.105 | [2] 0.103 | [3] 0.055 | [4] 0.015 | [5] -0.011 | [6] 0.017 | [7] 0.027 | [8] -0.075 | [9] -0.266

EIF3B isoform 2 (UniProt P55884)
inactive: erlotinib 0.024 | [1] 0 | [2] -0.113 | [3] -0.015 | [4] 0.021 | [5] 0.031 | [6] -0.015 | [7] -0.031 | [8] -0.003 | [9] -0.164

EFHD2 (UniProt Q96C19)
inactive: erlotinib -0.028 | [1] 0.033 | [2] 0.038 | [3] -0.041 | [4] 0.026 | [5] 0.033 | [6] -0.059 | [7] 0.104 | [8] 0.069 | [9] -0.196

EIF4G3 isoform 3 (UniProt O43432)
inactive: erlotinib 0.047 | [1] 0.01 | [3] -0.083 | [4] 0.041 | [5] -0.046 | [6] -0.028 | [7] 0.071 | [8] -0.049 | [9] -0.125

EPB41, A0A2R8Y6D0
inactive: erlotinib -0.163 | [1] 0.034 | [3] 0.033 | [4] -0.098 | [5] 0.021 | [6] 0.06 | [7] -0.137 | [8] -0.158 | [9] 0.106

EIF2B3 (UniProt Q9NR50)
inactive: erlotinib 0.003 | [1] 0.054 | [2] -0.025 | [3] 0.043 | [4] 0.007 | [5] 0.008 | [6] 0.042 | [7] -0.014 | [8] 0.015 | [9] -0.06

EHMT1 (UniProt Q9H9B1)
inactive: erlotinib 0.139 | [1] 0.159 | [2] 0.101 | [3] 0 | [4] 0.005 | [5] -0.203 | [6] -0.089 | [7] -0.042 | [8] 0.037 | [9] -0.07

ELOVL7 (UniProt A1L3X0)
inactive: erlotinib -0.008 | [1] 0.062 | [2] -0.065 | [3] 0.009 | [4] 0.182 | [7] -0.162 | [8] 0.078 | [9] 0.065

EGR1 (UniProt P18146)
inactive: erlotinib -0.105 | [1] 0.001 | [2] 0.071 | [3] 0.176 | [4] 0.208 | [5] 0.088 | [6] -0.28 | [7] -0.474 | [8] 0.118 | [9] -0.121

EIF6 (UniProt P56537)
inactive: erlotinib 0.019 | [1] -0.095 | [2] -0.03 | [3] 0.011 | [4] 0.062 | [5] 0.047 | [6] -0.062 | [7] -0.02 | [8] 0.077 | [9] 0.096

EML4 (UniProt Q9HC35)
inactive: erlotinib 0.032 | [1] -0.033 | [2] -0.055 | [3] 0.002 | [4] 0.013 | [5] -0.005 | [6] 0.014 | [7] 0.041 | [8] -0.043 | [9] -0.204

EEF1A2 (UniProt Q05639)
inactive: erlotinib 0.02 | [1] 0.008 | [2] -0.048 | [3] 0.004 | [4] 0.065 | [5] -0.003 | [6] 0.008 | [7] 0.003 | [8] 0.022 | [9] 0.025

EEF1B2 (UniProt P24534)
inactive: erlotinib -0.006 | [1] 0.033 | [2] -0.028 | [3] -0.058 | [4] 0.008 | [5] -0.036 | [6] 0.027 | [7] 0.02 | [8] 0.064 | [9] -0.058

EML5 isoform 5 (UniProt Q05BV3)
inactive: erlotinib -0.111 | [1] 0.222 | [3] 0.024 | [4] 0.121 | [5] 0.099 | [6] -0.027 | [7] -0.087 | [8] 0.019 | [9] -0.008

ELP4 isoform 3 (UniProt Q96EB1)
inactive: erlotinib -0.002 | [1] -0.025 | [2] 0.028 | [3] 0.031 | [4] -0.052 | [5] 0.032 | [6] 0.02 | [7] 0.002 | [8] -0.001 | [9] 0.04

ENSA isoform 3 (UniProt O43768)
inactive: erlotinib -0.02 | [1] -0.043 | [2] 0.011 | [3] 0.017 | [4] -0.062 | [5] 0.015 | [6] -0.035 | [7] 0.009 | [8] 0.056 | [9] 0.039

ELAC1 (UniProt Q9H777)
inactive: erlotinib 0.035 | [1] -0.068 | [2] 0.04 | [3] -0.061 | [4] 0.041 | [7] -0.021

EIF3I (UniProt Q13347)
inactive: erlotinib 0.035 | [1] 0.076 | [2] -0.049 | [3] -0.056 | [4] 0.04 | [5] -0.008 | [6] -0.004 | [7] 0.009 | [8] 0.004 | [9] -0.094

ELF1 (UniProt P32519)
inactive: erlotinib -0.016 | [1] -0.052 | [2] 0.068 | [3] 0.028 | [4] -0.003 | [6] 0.082 | [7] -0.091 | [8] 0.013 | [9] -0.092

EMC10 (UniProt Q5UCC4)
inactive: erlotinib 0 | [1] -0.05 | [2] 0.014 | [3] -0.004 | [4] 0.016 | [5] 0.004 | [6] 0 | [7] -0.087 | [8] -0.004 | [9] 0.045

EIF3J isoform 2 (UniProt O75822)
inactive: erlotinib 0.094 | [1] -0.093 | [2] 0.029 | [3] 0.005 | [4] 0.14 | [5] -0.042 | [7] -0.138 | [8] 0.143 | [9] 0

EIF2B4 (UniProt Q9UI10)
inactive: erlotinib -0.063 | [1] -0.106 | [2] -0.041 | [3] 0.046 | [4] -0.041 | [5] 0.169 | [7] -0.069 | [8] 0.026 | [9] -0.188

EMP3 (UniProt P54852)
inactive: erlotinib -0.06 | [1] -0.032 | [2] -0.062 | [3] -0.021 | [4] 0.016 | [5] 0.031 | [6] 0.058 | [7] -0.055 | [8] -0.041 | [9] 0.138
